Reference: paper PMC8104107
These are yes or no findings as the source states them, for the method shown. Binding seen in cells or lysates may run through a third protein. Some results given as binding are weak or reduced against the parent protein; the word gives no strength.

Chains of the proteins cited; added tags and fusions are not shown.
UniProt P15682: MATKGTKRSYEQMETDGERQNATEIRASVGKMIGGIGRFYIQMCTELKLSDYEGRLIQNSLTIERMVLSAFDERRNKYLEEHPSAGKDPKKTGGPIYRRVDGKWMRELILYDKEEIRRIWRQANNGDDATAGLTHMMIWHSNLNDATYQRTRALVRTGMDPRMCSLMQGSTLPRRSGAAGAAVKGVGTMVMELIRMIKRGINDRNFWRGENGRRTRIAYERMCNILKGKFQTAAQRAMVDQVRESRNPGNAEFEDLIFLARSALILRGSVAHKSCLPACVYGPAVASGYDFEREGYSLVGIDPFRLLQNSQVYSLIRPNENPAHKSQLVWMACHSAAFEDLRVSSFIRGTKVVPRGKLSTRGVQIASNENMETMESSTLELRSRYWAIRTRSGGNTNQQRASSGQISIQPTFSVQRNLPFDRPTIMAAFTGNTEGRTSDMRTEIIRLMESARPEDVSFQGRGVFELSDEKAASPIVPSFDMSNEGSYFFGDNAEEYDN
UniProt P05777: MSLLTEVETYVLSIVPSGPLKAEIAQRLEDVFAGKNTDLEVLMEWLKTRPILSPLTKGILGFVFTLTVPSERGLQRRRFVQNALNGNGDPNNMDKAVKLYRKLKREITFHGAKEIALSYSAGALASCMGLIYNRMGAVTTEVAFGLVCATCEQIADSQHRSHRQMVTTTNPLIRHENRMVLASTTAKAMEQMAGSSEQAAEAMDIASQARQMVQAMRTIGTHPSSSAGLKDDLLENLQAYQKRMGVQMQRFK

Target: FLAG-NP (plasmid pHW2000-FLAG-GFP-NP) (influenza A virus A/WSN/33 (H1N1)) (UniProt P15682)
Experiment: co-IP; […] (50 mM Tris-HCl pH 7.4, 150 mM NaCl, 1% Triton X-100); […]

Question: How did the binding turn out when “M1 of influenza A/WSN/33 (H1N1) virus made in infected cells (from UniProt P05777 1-252)” was run?
Answer: binds
